# Reference: patent US11421237B2, “Pair of amino acid sequences for monitoring formation of TDP-43 oligomer in living cells via bimolecular fluorescence complementation” (KOREA INSTITUTE OF SCIENCE AND TECHNOLOGY, priority 2019, dated 2022)
# Some entries share one result that the patent states for a list of compounds.
# Tested on: TDP-43-BiFC cells
# Experiment: BiFC fluorescence analysis of TDP-43 oligomer formation in TDP-43-BiFC cells (384-well, Operetta)
# Format: cell-based, human
# Conditions: TDP-43 cell model treated with the inducer
# Experimental: In order to develop a TDP-43-BiFC cell line, the TDP-43-VN173 and TDP-43-VC155 constructs shown in FIG. 2 were co-transfected into HEK293 BiFC cells. For establishment of a stable cell line, the transfected cells were selected by culture with growth medium containing 100 μg/mL geneticin (G418; Sigma). In addition, the selected cells were sorted using FACSAria (BD Bioscience) into cells showing fluorescence. The sorted TDP-43-BiFC cells were kept in DMEM medium containing 10% FBS, 100 units/mL penicillin, 100 μg/mL streptomycin and 100 μg/mL G418 in a humidified atmosphere at 37° C. under 5% CO2.
# The TDP-43-BiFC cells prepared in Example 1 above were treated with a compound that induces PTMs of protein, a compound that ER stress in cells, amyloid protein, metal ions, or the like, and changes in BiFC fluorescence in the cells were examined. Specifically, for fluorescence analysis, the TDP-43-BiFC cells were grown in a 384-well plate and treated with each of forskolin (30 μM), scriptaid (3 μM), thapsigargin (1 μM), ionomycin (1 μM), MG132 (5 μM), α-synuclein (5 μg/ml), tauK18^P301L (5 μg/ml), Cu^2+ (1 μM) and Zn^2+ (30 μM), followed by culture at 37° C. for 48 hours. Fluorescence images were obtained using Operetta® (PerkinElmer), and the fluorescence intensity in the nucleus and the cytoplasmic fluorescence intensity were analyzed using Harmony3.1 software (PerkinElmer).
smiles,measurement,value
C[C@H](CCC(=O)O)C[C@H](C)C[C@H](C)C(=O)/C=C(\O)[C@H](C)C[C@H](C)C/C=C/[C@@H](C)[C@@H](O)[C@@H](C)[C@@H](O)C[C@@H]1CC[C@@](C)([C@H]2CC[C@@](C)([C@@H](C)O)O2)O1 [ionomycin],increase of BiFC fluorescence in treated cells compared to untreated group (summary statement),≥ 7 times
